Patent US6358738
These are yes or no findings as the source states them, for the method shown. Some results given as binding are weak or reduced against the parent protein; the word gives no strength. Tags and fused reporters may be left off the sequences shown.

Protein sequences, listed by entry. Tags and fused reporters are not part of them. Lines headed by an entry give the natural chain unless they say otherwise; changes in a name come on top.
UniProt Q07832: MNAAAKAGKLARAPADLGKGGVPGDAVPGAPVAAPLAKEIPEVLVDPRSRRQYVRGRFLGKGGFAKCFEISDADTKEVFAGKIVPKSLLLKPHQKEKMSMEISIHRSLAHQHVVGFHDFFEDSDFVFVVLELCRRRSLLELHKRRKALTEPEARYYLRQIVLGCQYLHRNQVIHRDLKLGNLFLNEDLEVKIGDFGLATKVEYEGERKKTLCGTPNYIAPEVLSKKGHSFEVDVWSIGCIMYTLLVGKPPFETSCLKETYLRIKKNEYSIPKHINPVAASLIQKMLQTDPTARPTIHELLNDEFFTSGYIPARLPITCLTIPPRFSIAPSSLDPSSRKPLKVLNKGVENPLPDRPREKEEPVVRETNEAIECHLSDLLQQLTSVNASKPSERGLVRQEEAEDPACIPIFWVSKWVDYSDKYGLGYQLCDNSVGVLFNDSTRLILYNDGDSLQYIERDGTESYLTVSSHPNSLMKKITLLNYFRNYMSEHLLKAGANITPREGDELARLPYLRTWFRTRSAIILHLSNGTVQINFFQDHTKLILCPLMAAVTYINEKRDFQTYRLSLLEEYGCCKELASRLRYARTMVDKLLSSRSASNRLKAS

Tests used:
[1] = molecular target: full-length Plk fused to a GAL4 DNA-binding domain (murine (mammalian Plk)); assay: yeast two-hybrid screen, HeLa cDNA library fused to GAL4 activation domain against full-length Plk fused to GAL4 DNA-binding domain
[2] = molecular target: HA-Plk (murine (mammalian Plk)) (UniProt Q07832); assay: interaction of recombinant proteins produced in insect cells with baculovirus (GST-fusion)

Row | binding [1] | Binder | binding [2]
1 | binds | translationally controlled tumor protein TCTP/p23, clones from HeLa cell cDNA library fused to a GAL4 activation domain (protein, not shown: large carriers) MIIYRDLISHDEMFSDIYKIREIADGLCLEVEGKMVSRTEGNIDDSLIGGNASAEGPEGEGTESTVITGVDIVMNHHLGETSFTKEAYKKYIKDYMKSIKGKLEEGRPERVKPFMTGAAEGIKHILANFKNYGFFIGENMNPDGMVALLDYREDGVTPYMIFFKDGLEMEKC | 
2 |  | GST-fusion protein of full-length TCTP/p23 (protein, not shown: a dimerising Fc or GST) MIIYRDLISHDEMFSDIYKIREIADGLCLEVEGKMVSRTEGNIDDSLIGGNASAEGPEGEGTESTVITGVDIVMNHHLGETSFTKEAYKKYIKDYMKSIKGKLEEGRPERVKPFMTGAAEGIKHILANFKNYGFFIGENMNPDGMVALLDYREDGVTPYMIFFKDGLEMEKC | binds
